Record: PubChem BioAssay AID652259 (Drosophila RNAi Screening Center, 2013)
Aim: 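Identify new Wingless signalling regulators in fly cells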 (primary screen). Cell system: Drosophila clone 8 imaginal disc epithelial cells. Reagents: long dsRNA against Drosophila genes. Challenge: pathway stimulated by co-transfected Wingless expression plasmid. Detection: 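Dual luciferase reads per well after Wingless plasmid stimulation: reporter firefly light and Renilla control light; activity is firefly divided by Renilla, a ratio not deposited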. Direction: firefly reporter light: higher = more Wg reporter light, before normalisation; Renilla control light: higher = more transfected or surviving cells. Rule for the call: 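Strong candidates differ from their plate mean by at least two out of four per-plate statistical tests; weak candidates meet just one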. Meaning of the calls: active = candidate regulator (raises or lowers reporter); inactive = not a candidate.
The screen tested about 22,000 reagents; below is a random part of those with a known target gene and a result. Over the whole deposit, 233 (1.1%) got an active call. 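Light values are raw, unnormalised plate reads; the ratio scores behind the reporter calls were not deposited.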 Entries without a mark were called inactive. The record does not give: the amount of reagent, the time to read-out, the dose of the treatment.

| gene | DRSC id | reporter change call, replicate 1 | firefly reporter light, replicate 1 | firefly reporter light, replicate 2 | Renilla control light, replicate 1 | Renilla control light, replicate 2 |
| --- | --- | --- | --- | --- | --- | --- |
| Dh31-R (Diuretic hormone 31 Receptor) | DRSC06647 | – | 5837 | – | 1783 | – |
| Dh31-R (Diuretic hormone 31 Receptor) | DRSC06669 | – | 5689 | – | 2566 | – |
| Syngr (Synaptogyrin) | DRSC06003 | – | 9258 | – | 2635 | – |
| Atx2 (Ataxin-2) | DRSC15727 | Wg reporter activity raised (active) | 7324 | – | 443 | – |
| Toll-7 | DRSC07563 | – | 7722 | 7.23e5 | 2604 | 2.49e5 |
| trbl (tribbles) | DRSC11901 | – | 12704 | – | 4305 | – |
| Noc1 (Nucleolar complex protein 1) | DRSC10921 | – | 5072 | – | 2598 | – |
| CG3548 | DRSC04387 | – | 10923 | – | 2932 | – |
| CG5758 | DRSC02889 | – | 2038 | 7779 | 617 | 2016 |
| CG5758 | DRSC02890 | – | 1945 | 5143 | 840 | 2160 |
| smash (smallish) | DRSC12139 | – | 8192 | – | 2624 | – |
| smash (smallish) | DRSC12141 | – | 5844 | – | 1337 | – |
| smash (smallish) | DRSC12239 | – | 15511 | – | 4727 | – |
| smash (smallish) | DRSC12289 | – | 17621 | – | 5557 | – |
| Gr64a (Gustatory receptor 64a) | DRSC21713 | – | 3.30e5 | 4.49e5 | 2.85e5 | 1.92e5 |
| CG42826 | DRSC10682 | – | 9027 | – | 3293 | – |
| tn (retired record) | DRSC05768 | – | 14233 | – | 8881 | – |
| tn (retired record) | DRSC06532 | – | 10277 | – | 4486 | – |

Next part, starting with the last 4 of the part before.
| gene | DRSC id | reporter change call, replicate 1 | firefly reporter light, replicate 1 | firefly reporter light, replicate 2 | Renilla control light, replicate 1 | Renilla control light, replicate 2 |
| --- | --- | --- | --- | --- | --- | --- |
| Gr64a (Gustatory receptor 64a) | DRSC21713 | – | 3.30e5 | 4.49e5 | 2.85e5 | 1.92e5 |
| CG42826 | DRSC10682 | – | 9027 | – | 3293 | – |
| tn (retired record) | DRSC05768 | – | 14233 | – | 8881 | – |
| tn (retired record) | DRSC06532 | – | 10277 | – | 4486 | – |
| spt4 | DRSC07696 | – | 11705 | – | 3764 | – |
| NimC3 (Nimrod C3) | DRSC03556 | – | 3174 | 10672 | 1666 | 4901 |
| NimC3 (Nimrod C3) | DRSC22528 | – | 6.29e5 | 6.67e5 | 2.71e5 | 1.77e5 |
| CG40006 | DRSC03787 | – | 12304 | – | 8022 | – |
| CG40006 | DRSC03809 | – | 20228 | – | 11894 | – |
| CG40006 | DRSC03814 | – | 15962 | – | 9264 | – |
| CG40006 | DRSC03817 | – | 18103 | – | 10193 | – |
| Alp10 (Alkaline phosphatase 10) | DRSC09749 | – | 2304 | 6864 | 1226 | 5616 |
| mRpS2 (mitochondrial ribosomal protein S2) | DRSC00550 | – | 3488 | 9176 | 1415 | 2899 |
| CG43174 (retired record) | DRSC09518 | – | 4464 | – | 2181 | – |
| CG11658 | DRSC09852 | – | 7892 | – | 2869 | – |
